Measured values: KR20190108308A
No constants are given. Whether binding was seen depends on the method and setting. Some results given as binding are weak or reduced against the parent protein; the word gives no strength.

Protein sequences, listed by entry. Tags and fused reporters are not part of them. Lines headed by an entry give the natural chain unless they say otherwise; changes in a name come on top.
UniProt P06756: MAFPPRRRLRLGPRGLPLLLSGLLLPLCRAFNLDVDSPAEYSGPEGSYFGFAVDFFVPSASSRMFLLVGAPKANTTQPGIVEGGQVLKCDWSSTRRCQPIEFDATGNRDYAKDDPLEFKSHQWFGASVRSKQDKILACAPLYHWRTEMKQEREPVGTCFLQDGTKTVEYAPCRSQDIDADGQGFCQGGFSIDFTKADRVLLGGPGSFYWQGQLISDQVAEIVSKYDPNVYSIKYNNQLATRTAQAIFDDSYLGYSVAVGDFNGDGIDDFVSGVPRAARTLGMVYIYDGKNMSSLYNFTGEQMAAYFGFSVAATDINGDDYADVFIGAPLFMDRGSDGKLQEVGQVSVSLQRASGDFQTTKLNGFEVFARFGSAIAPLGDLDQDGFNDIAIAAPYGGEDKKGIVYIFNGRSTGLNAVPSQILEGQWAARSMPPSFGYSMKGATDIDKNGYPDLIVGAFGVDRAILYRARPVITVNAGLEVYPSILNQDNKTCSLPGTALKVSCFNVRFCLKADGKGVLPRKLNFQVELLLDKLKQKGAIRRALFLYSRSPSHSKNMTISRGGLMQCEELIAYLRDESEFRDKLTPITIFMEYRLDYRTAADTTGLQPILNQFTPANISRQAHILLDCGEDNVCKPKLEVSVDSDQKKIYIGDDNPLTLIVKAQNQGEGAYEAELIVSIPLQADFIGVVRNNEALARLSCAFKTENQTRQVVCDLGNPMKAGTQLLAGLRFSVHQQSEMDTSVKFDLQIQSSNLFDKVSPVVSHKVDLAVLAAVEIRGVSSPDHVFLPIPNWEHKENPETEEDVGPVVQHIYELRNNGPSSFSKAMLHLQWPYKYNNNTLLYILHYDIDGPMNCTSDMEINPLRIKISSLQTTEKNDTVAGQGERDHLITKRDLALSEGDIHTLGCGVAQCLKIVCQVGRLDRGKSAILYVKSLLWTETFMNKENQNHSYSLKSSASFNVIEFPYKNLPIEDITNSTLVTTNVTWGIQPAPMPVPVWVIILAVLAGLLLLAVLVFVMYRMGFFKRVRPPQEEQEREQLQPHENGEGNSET
UniProt P05106: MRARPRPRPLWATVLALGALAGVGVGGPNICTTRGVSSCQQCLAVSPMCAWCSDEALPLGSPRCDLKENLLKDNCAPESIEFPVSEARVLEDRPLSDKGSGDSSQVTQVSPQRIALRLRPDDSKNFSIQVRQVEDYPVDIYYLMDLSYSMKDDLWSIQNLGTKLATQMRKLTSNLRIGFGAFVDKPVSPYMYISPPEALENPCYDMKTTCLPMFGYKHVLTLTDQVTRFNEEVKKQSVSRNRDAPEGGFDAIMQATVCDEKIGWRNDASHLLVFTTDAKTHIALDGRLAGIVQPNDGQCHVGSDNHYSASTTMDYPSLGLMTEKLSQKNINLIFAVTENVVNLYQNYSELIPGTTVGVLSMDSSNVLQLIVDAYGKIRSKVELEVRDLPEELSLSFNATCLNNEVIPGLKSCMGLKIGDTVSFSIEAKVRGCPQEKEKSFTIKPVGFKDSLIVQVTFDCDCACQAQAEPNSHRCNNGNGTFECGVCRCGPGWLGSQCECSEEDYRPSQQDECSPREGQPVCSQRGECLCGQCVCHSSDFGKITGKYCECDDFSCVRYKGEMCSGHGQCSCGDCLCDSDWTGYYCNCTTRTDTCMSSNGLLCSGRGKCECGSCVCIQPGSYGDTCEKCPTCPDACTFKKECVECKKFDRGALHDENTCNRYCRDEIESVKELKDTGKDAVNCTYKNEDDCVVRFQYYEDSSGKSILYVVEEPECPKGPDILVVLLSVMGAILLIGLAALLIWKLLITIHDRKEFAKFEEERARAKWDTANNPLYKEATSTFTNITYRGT

What was measured:
[1] = target: T1, 인간 αvβ3 인테그린 ITGAVB3 (recombinant human αvβ3 integrin) (human) (UniProt P06756+P05106); assay: ELISA by the method of Example 5, ten VHH clones compared
[2] = target: T1, 인간 αvβ3 인테그린 ITGAVB3 (recombinant human αvβ3 integrin) (human); assay: phage ELISA, coated target, HRP anti-M13
[3] = target: T1, 인간 αvβ3 인테그린 ITGAVB3 (recombinant human αvβ3 integrin) (human); assay: SPR (Reichert SR7500DC), αvβ3 integrin immobilised on CMDH chip

Measured: binding

B1: 단일 도메인 항체 VHH-13 (VHH)
VHH: HVQLVESGGGSVQPGESLRLSCVASGYTVSSSCMAWFRQAPGKEREVVATIVVTSDTTSTFYADSVKGRFTISPDNAKNTLNLQMNSLEPSDTAMYYCAADRKWNVCSRGYRYTPNWANQFTFWGQGTQVTVSS
binds: all assays above

B2: 단일 도메인 항체 VHH-25 (VHH)
VHH: EVQLVESGGGSVQAGGSLRLSCVVSGYTCSVYDMIWYRQPPGKEREFVSLINSNGRTTYADSVKGRFTISQNNAKNTVYLQMNSLKPEDTAMYYCHAACYSPSRLNYWGQGTQVTVSS
binds: all assays above

B3: 단일 도메인 항체 VHH-22 (VHH)
VHH: QVQLVESGGGSVQAGGSLRLSCVVSGYTCSVYDMIWYRQPPGKEREFVSLINSNGRTTYADSVKGRFTISQNNAKNTVYLQMNSLKPEDTAMYYCHAACYSPSRLNYWGQGTLVTVSS
binds: all assays above
